Reference: the supplement of paper PMC7666118
The list shows a part of the results.

Sequences of proteins named here, by UniProt entry; tags and fusion partners are left off. A change or cut given only in a name is not applied to a line headed by its entry.
UniProt Q9P2K6: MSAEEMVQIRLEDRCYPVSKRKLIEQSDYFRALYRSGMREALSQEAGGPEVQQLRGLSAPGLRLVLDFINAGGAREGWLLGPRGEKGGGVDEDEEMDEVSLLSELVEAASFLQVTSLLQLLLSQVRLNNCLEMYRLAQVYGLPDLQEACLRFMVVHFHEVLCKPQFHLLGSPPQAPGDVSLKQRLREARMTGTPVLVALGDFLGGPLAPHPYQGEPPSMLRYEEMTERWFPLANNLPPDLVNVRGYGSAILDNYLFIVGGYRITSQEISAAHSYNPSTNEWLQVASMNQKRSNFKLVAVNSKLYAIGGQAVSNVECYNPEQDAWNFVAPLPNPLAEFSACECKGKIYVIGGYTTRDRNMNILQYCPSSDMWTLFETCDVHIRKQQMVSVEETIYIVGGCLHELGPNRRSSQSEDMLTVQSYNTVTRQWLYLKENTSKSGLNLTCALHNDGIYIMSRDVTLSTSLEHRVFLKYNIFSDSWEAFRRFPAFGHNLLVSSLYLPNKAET
UniProt P51553: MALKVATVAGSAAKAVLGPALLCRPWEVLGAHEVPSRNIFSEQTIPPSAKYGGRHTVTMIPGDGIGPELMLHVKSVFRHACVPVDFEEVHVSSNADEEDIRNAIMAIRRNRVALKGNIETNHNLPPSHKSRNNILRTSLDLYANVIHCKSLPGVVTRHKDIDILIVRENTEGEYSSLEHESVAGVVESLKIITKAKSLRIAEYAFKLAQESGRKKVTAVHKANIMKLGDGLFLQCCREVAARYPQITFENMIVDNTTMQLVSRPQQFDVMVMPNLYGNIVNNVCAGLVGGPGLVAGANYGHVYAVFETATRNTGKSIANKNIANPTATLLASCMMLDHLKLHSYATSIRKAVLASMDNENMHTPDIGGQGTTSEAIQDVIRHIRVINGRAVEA
UniProt Q13907: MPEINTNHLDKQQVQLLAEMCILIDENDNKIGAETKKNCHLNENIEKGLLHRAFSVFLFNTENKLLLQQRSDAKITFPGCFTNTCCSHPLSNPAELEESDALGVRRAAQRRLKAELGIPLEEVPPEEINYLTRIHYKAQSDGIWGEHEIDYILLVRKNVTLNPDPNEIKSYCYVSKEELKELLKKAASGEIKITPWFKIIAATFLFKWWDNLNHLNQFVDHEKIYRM
UniProt Q53HC5: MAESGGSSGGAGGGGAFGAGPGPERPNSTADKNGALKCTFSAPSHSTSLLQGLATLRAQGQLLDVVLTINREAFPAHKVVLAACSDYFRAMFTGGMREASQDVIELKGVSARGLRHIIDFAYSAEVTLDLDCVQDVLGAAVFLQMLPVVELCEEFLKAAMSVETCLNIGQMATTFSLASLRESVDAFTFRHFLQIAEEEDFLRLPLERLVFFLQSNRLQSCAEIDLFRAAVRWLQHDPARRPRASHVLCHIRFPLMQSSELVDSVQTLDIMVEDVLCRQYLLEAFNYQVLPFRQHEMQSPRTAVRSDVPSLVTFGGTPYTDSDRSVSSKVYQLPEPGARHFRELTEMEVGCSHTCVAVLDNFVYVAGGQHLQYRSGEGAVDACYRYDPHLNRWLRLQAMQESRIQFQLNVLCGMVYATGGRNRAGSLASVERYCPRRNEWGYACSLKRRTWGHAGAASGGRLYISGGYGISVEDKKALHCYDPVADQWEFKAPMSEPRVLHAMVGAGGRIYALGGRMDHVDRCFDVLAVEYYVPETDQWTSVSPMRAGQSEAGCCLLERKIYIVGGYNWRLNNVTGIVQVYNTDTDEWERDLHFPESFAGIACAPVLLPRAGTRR
UniProt P26440: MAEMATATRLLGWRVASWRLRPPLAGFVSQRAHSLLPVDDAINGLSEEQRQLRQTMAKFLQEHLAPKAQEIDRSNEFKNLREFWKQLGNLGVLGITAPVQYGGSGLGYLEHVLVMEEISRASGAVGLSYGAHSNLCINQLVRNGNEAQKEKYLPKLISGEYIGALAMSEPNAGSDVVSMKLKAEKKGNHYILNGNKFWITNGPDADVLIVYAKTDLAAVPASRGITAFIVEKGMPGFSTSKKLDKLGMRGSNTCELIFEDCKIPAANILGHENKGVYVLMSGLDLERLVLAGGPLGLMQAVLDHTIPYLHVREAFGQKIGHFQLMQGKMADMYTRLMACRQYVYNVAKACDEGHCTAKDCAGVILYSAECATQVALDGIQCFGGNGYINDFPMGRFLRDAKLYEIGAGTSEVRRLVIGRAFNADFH
UniProt Q15652: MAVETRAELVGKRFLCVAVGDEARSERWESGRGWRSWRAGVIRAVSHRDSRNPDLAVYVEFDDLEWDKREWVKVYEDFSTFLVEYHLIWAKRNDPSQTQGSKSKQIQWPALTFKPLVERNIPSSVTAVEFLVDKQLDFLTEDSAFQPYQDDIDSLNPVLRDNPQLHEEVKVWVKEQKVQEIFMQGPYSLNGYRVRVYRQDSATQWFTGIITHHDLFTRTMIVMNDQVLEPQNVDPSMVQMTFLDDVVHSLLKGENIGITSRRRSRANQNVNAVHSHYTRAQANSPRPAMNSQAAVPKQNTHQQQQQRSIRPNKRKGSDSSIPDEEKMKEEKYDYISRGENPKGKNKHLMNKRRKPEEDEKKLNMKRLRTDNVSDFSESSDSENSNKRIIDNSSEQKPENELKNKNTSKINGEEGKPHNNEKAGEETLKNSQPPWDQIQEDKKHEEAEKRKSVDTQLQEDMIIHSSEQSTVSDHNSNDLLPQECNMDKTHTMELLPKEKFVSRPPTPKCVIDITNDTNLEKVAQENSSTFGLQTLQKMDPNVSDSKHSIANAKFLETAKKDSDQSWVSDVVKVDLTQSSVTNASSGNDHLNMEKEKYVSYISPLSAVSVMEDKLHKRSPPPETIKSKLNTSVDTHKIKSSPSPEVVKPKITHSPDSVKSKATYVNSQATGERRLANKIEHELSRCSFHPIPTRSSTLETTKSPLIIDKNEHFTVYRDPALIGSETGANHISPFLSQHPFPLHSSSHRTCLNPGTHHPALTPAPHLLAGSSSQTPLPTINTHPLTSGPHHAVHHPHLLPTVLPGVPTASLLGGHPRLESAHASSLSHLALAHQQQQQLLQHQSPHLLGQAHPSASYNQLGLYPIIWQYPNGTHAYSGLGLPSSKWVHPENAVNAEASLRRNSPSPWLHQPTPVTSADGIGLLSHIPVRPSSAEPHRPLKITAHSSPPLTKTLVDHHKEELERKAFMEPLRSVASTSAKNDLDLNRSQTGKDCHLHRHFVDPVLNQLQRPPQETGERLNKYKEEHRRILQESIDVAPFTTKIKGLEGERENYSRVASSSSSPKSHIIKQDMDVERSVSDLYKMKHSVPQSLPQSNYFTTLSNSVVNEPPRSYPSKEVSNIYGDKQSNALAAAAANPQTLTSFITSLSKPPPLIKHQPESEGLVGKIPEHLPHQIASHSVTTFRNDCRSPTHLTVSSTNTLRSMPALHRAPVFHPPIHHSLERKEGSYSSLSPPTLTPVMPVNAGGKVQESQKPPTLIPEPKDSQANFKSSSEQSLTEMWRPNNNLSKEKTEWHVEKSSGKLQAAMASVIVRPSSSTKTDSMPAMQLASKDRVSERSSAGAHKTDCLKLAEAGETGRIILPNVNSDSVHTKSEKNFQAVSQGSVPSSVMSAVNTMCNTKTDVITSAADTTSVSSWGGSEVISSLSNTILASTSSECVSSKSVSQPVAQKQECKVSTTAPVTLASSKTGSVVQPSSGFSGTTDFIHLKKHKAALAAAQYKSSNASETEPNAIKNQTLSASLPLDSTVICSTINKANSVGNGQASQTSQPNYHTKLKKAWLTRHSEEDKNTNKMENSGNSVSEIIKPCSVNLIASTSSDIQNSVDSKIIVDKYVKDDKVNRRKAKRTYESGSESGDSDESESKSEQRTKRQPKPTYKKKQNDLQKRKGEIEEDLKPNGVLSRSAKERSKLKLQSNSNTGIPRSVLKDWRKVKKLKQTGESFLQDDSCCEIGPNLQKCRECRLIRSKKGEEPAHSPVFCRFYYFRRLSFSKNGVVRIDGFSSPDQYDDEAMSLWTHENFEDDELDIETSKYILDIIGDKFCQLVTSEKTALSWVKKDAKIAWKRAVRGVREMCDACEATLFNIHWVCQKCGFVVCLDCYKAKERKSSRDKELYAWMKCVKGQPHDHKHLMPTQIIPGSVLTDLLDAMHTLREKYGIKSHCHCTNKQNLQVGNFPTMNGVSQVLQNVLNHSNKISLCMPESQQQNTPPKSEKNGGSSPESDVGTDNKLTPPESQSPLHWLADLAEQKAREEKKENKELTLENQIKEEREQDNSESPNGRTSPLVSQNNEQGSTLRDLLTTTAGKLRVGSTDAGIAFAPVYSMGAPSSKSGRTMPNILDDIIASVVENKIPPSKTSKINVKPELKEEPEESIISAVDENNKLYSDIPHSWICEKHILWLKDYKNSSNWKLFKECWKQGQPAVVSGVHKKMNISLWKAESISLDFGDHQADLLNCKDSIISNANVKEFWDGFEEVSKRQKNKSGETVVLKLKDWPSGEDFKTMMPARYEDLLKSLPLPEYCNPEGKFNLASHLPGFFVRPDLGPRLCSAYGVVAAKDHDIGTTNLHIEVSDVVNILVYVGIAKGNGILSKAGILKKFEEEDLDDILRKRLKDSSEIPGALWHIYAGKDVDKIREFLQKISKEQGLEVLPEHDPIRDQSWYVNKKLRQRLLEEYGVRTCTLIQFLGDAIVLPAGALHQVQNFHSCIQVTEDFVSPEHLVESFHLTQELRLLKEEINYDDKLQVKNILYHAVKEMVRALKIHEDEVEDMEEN
UniProt Q86X10: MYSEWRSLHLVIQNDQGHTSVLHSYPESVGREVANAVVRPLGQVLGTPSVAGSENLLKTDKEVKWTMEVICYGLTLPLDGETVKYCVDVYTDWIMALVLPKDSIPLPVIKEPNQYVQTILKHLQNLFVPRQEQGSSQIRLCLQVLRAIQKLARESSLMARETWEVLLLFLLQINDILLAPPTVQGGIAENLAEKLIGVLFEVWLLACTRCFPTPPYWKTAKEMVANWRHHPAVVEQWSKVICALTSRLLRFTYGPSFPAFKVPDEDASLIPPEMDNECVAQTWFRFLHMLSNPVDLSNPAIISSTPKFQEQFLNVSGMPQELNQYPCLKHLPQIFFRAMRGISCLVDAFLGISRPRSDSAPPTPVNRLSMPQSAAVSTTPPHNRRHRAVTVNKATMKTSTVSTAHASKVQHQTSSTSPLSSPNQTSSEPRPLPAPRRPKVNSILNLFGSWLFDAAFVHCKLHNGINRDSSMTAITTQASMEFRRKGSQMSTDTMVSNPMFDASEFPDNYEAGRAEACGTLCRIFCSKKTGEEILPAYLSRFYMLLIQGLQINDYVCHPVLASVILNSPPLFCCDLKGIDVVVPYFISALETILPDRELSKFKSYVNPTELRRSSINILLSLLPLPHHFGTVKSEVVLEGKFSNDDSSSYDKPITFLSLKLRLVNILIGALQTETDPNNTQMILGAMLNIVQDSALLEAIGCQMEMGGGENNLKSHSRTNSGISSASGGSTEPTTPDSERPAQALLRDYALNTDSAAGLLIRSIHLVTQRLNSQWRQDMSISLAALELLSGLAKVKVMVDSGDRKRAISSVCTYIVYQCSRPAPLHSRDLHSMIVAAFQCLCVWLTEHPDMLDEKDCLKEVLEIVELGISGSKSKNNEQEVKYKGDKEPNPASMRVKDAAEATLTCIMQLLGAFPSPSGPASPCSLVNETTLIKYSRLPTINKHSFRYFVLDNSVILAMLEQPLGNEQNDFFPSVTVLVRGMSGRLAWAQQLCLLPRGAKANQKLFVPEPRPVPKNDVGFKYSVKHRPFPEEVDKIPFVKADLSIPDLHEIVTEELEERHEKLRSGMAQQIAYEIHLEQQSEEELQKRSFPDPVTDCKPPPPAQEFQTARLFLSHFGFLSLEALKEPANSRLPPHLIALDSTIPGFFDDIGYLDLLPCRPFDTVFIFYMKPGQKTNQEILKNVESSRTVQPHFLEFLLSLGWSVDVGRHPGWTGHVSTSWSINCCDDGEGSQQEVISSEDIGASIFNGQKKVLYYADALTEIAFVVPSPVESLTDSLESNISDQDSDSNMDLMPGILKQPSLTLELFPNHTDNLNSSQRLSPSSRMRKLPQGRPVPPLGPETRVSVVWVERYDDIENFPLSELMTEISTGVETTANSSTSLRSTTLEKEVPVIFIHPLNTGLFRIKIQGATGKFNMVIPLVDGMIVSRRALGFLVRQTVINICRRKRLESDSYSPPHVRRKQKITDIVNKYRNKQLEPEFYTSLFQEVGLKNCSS

Compound: COc1ccc(Cn2ccc3cc(C)c(C(=O)NO)cc32)cc1
Experiment: dose-dependent thermal stabilisation call (2D-TPP, DLPTP, 10% FDR) (binary (1 = stabilised)); higher = stabilised by the compound
Details: system: HL-60 intact cells; concentration range 0.04-10 µM
Protocol: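 2D thermal proteome profiling in intact HL-60 cells treated with BRD-3811 (0, 0.04, 0.29, 2, 10 uM) for 90 min at 37 C, then heated 3 min at one of 12 temperatures (42-63.9 C). Soluble protein was quantified by TMT10 MS. The value is the DLPTP call of the paper: dose-dependent thermal stabilisation over all temperatures at 10% FDR (F-test of a dose-response against a flat model); one experiment, one call per tested protein.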

Target | dose-dependent thermal stabilisation call
KIF23 (UniProt Q02241) | inactive: 0
KLHDC5 (UniProt Q9P2K6) | inactive: 0
IDH3G (UniProt P51553) | inactive: 0
HUWE1 (UniProt Q7Z6Z7) | inactive: 0
IDI1 (UniProt Q13907) | inactive: 0
KLHL26 (UniProt Q53HC5) | inactive: 0
IVD (UniProt P26440) | inactive: 0
JMJD1C (UniProt Q15652) | inactive: 0
KIAA1219 (UniProt Q86X10) | inactive: 0

Two records drawn at random from those above:
Target | dose-dependent thermal stabilisation call
KIAA1219 (UniProt Q86X10) | inactive: 0
KLHL26 (UniProt Q53HC5) | inactive: 0
